Experimental data from patent publication US20190134039A1, “ANTIVIRAL JAK INHIBITORS USEFUL IN TREATING OR PREVENTING RETROVIRAL AND OTHER VIRAL INFECTIONS” (EMORY UNIVERSITY, priority 2011, published 2019).
Where two headings read alike, the source gives them in different places.

How the values were obtained:
Mφ = experiment: cells; details: Homo sapiens, read-out: IC50 in Mφ *MTT Assay
[1] = tested on: HIV-1 containing 4xAZT (D67N/K70R/T215Y/K219Q); experiment: microbe, parasite or virus in culture; format: cell-based
[2] = tested on: acute infection in rhesus macaque macrophages; experiment: cells; details: read-out: Acute infection in rhesus macaque macrophages EC50
Source text: (§1) The data (Shown in Table 5 below) are mean and standard deviations from at least three independent experiments.

[3] = tested on: acute infection in rhesus macaque lymphocytes; experiment: cells; details: Macaca mulatta, Lymphocyte, read-out: Acute infection in rhesus macaque lymphocytes EC50
Source text: as §1

Vero cells = experiment: cells; details: Chlorocebus sabaeus, read-out: IC50 in Vero cells *MTT Assay
PBM cells = experiment: cells; details: Homo sapiens, PBMC, read-out: IC50 in PBM cells *Propidium Iodide assay
pSTAT3 = experiment: cells; details: read-out: EC50 pSTAT3
wild-type HIV-1xxLAI = experiment: Antiviral potency in primary human lymphocytes, wild type; format: cell-based; details: Human immunodeficiency virus 1, Lymphocyte
HIV-2 = experiment: microbe, parasite or virus in culture; details: Human immunodeficiency virus 2, PBMC, read-out: Anti-HIV-2 EC50 in acutely infected PBM cells
HIV-1 containing M184V = experiment: microbe, parasite or virus in culture; format: cell-based
pSTAT1 = experiment: cells
HIV-1 containing K65R = experiment: microbe, parasite or virus in culture; format: cell-based
PHA stimulated PBM cells = experiment: cells; details: Homo sapiens, PBMC, read-out: IC50 in PHA stimulated PBM cells *MTT Assay
HIV-1BaL = experiment: microbe, parasite or virus in culture; details: Human immunodeficiency virus 1, Macrophage, read-out: Anti-HIV-1 EC50 in acutely infected MΦ
Experimental: Macrophages were isolated as follows: Monocytes were isolated from buffy coats of HIV-1 negative, HBV/HCV-negative donors with density gradient centrifugation coupled with enrichment for CD14+ monocytes with Rosette Sep antibody cocktail (Stem Cell Technologies, Vancouver, British Columbia). Cells were seeded at a concentration of 1.0×10^6 cells/well for 1 hr at 37° C. and 5% CO2 to confer plastic adherence prior to repeated washes with 1×PBS. Macrophages were maintained in medium containing 100 U/ml macrophage colony-stimulating factor (m-CSF, R&D Systems, Minneapolis, Minn.), supplemented with 20% fetal calf serum (Atlanta Biologicals, Lawrenceville, Ga.) and 1% penicillin/streptomyocin (Invitrogen, Carlsbad, Calif.) for 7 days (37° C., 5% CO2) prior to testing.
Macrophage infections: Macrophages were cultured as described above for 7 days. […] 4 hrs after infection, virus was removed and drug-containing medium was returned to the cultures. Supernatants were collected on day 7 post-infection and HIV-1 p24 was quantified via ELISA (Zeptometrix Corporation, Buffalo, N.Y.). EC50 analysis was performed using CalcuSyn software (BioSoft Corporation, Cambridge, UK).

HIV-1 containing L74V = experiment: microbe, parasite or virus in culture; format: cell-based
CEM cells = experiment: cells; details: Homo sapiens, CCRF-CEM, read-out: IC50 in CEM cells *MTT Assay
HIV-1LAI = experiment: microbe, parasite or virus in culture; details: Human immunodeficiency virus 1, PBMC, read-out: Anti-HIV-1 EC50 in acutely infected PBM cells
Source text: PBM cells were isolated as follows: Lymphocytes were isolated from buffy coats derived from healthy donors obtained from Life South Laboratories (Dunwoody, Ga.). Activated lymphocytes were maintained for 72 hrs in medium that was supplemented with […] phytohemagglutinin (PHA) (Cape Cod associates, East Falmouth, Mass.). Media was comprised of RPMI media supplemented with 20% fetal calf serum, 1% penicillin/streptomyocin and 2% L-glutamine (Sigma Aldrich, San Jose, Calif.).
PBM cell infections: Testing was performed in duplicate with at least 3 independent assays. Cells were incubated in RPMI medium (HyClone, Logan, Utah) containing HR-IL2 (26.5 units/ml) and 20% fetal calf serum. Infections were performed by adding HIV-1LA1 followed by a further incubation at 37° C., 5% CO2, 1 hr prior to addition of drugs. Assays were performed in 24 well plates (BD Biosciences, Franklin Lakes, N.J.). One ml of supernatant was collected after 5 days in culture and then centrifuged at 12,000 rpm for 2 hr at 4° C. in a Jouan Br43i (Thermo Electron Corp., Marietta, Ohio). The product of the RT assay was quantified using a Packard harvester and direct beta counter and the data were analyzed as previously described (Schinazi et al, 1990).

PHA + IL-2 PBM cells = experiment: cells; details: Homo sapiens, PBMC, read-out: IC50 in PHA + IL-2 PBM cells *MTT Assay
pSTAT5 = experiment: cells
[4] = tested on: HIV-1 containing A62V/V75I/F77L/F116Y/Q151M; experiment: microbe, parasite or virus in culture; format: cell-based
[5] = Human immunodeficiency virus 1, Lymphocyte

Question: `C[C@@H]1CCN(C(=O)CC#N)C[C@@H]1N(C)c1ncnc2[nH]ccc12` [Tofacitinib, 3-{(3R,4R)-4 methyl-3-[methyl-(7H-pyrrolo[2,3-d]pyrimidin-4-yl)-amino]-piperidin-1-yl}-3-oxo-propionitrile] was tested. Which IC50 (Mφ) did it give?
Answer: 49.2 µM

Question: And the “FI50 (ratio of EC50 against mutant virus:EC50 against wild-type xxLAI)” value ([1]; 4xAZT (D67N/K70R/T215Y/K219Q))?
Answer: 0.1

Question: What about the “FI90 (ratio of EC90 against mutant virus:EC90 against wild-type xxLAI)” value ([1]; 4xAZT (D67N/K70R/T215Y/K219Q)) of the same molecule?
Answer: 0.61

Question: What about the EC50 [1, 5] of the same molecule?
Answer: 0.3 ± 0.2 µM

Question: What about the EC50 ([2]; Macaca mulatta, Macrophage) of the same molecule?
Answer: ~0.4 µM

Question: And the EC50 [2]?
Answer: 0.3 ± 0.2 µM

Question: And the EC50 [3]?
Answer: 0.3 ± 0.1 µM

Question: And the IC50 (Vero cells)?
Answer: > 100 µM

Question: And the IC50 (PBM cells)?
Answer: > 50 µM

Question: What about the EC50 (pSTAT3) of the same molecule?
Answer: 0.02 µM

Question: What about the EC50 (wild-type HIV-1xxLAI) of the same molecule?
Answer: 2.6 ± 1.3 µM

Question: What about the EC50 (HIV-2) of the same molecule?
Answer: 0.07 ± 0.006 µM

Question: And the EC50 (HIV-1 containing M184V; [5])?
Answer: 1.6 ± 0.7 µM

Question: And the “FI50 (ratio of EC50 against mutant virus:EC50 against wild-type xxLAI)” value (HIV-1 containing M184V; M184V)?
Answer: 0.6

Question: And the “FI90 (ratio of EC90 against mutant virus:EC90 against wild-type xxLAI)” value (HIV-1 containing M184V; M184V)?
Answer: 1.0

Question: And the EC50 (pSTAT1; read-out: EC50 pSTAT1)?
Answer: < 0.01 µM

Question: And the EC90 (pSTAT1; read-out: EC90 pSTAT1)?
Answer: 0.01 µM

Question: And the EC50 (HIV-1 containing K65R; [5])?
Answer: 1.8 ± 0.8 µM

Question: What about the “FI50 (ratio of EC50 against mutant virus:EC50 against wild-type xxLAI)” value (HIV-1 containing K65R; K65R) of the same molecule?
Answer: 0.7

Question: And the “FI90 (ratio of EC90 against mutant virus:EC90 against wild-type xxLAI)” value (HIV-1 containing K65R; K65R)?
Answer: 2.9

Question: And the IC50 (PHA stimulated PBM cells)?
Answer: 6.3 ± 1.8 µM

Question: What about the EC50 (HIV-1BaL) of the same molecule?
Answer: 0.2 ± 0.08 µM

Question: And the EC50 (HIV-1 containing L74V; [5])?
Answer: 0.9 ± 1 µM

Question: What about the “FI50 (ratio of EC50 against mutant virus:EC50 against wild-type xxLAI)” value (HIV-1 containing L74V; L74V) of the same molecule?
Answer: 0.4

Question: And the “FI90 (ratio of EC90 against mutant virus:EC90 against wild-type xxLAI)” value (HIV-1 containing L74V; L74V)?
Answer: 1.7

Question: What about the IC50 (CEM cells) of the same molecule?
Answer: > 100 µM

Question: What about the EC50 (HIV-1LAI) of the same molecule?
Answer: 0.8 ± 0.3 µM

Question: And the CC50 (PHA + IL-2 PBM cells)?
Answer: 1.3 ± 0.9 µM

Question: And the EC50 (pSTAT5; read-out: EC50 pSTAT5)?
Answer: < 0.01 µM

Question: What about the EC90 (pSTAT5; read-out: EC90 pSTAT5) of the same molecule?
Answer: 0.01 µM

Question: And the “FI50 (ratio of EC50 against mutant virus:EC50 against wild-type xxLAI)” value ([4]; A62V/V75I/F77L/F116Y/Q151M)?
Answer: 0.1

Question: And the “FI90 (ratio of EC90 against mutant virus:EC90 against wild-type xxLAI)” value ([4]; A62V/V75I/F77L/F116Y/Q151M)?
Answer: 0.3

Question: And the EC50 [4, 5]?
Answer: 0.2 ± 0.2 µM
